Consider one molecule from PubChem BioAssay AID720534 (National Center for Advancing Translational Sciences (NCATS), 2013).

Only a part is listed here, and it is no random draw. Results filed as inconclusive are left out. Calls of active or inactive are those of the source. Calls follow the shape of the dose curve; as a rule, active = well fitted inhibition curve with a large enough effect; inconclusive = small, poorly fitted or top-dose-only effect; inactive = no such curve, though single readings can be large or run the other way.
Potency is read from the fitted curve at half-maximal effect.

The test can be described thus: qHTS for Inhibitors of TGF-b: Confirmation of Cherry Picks. Also: nearly all actives have a fitted effect of over 65% in size. The settings on record: HepG2 CAGA-GFP TGF-b reporter, GFP fluorescence, 18 h; cells stimulated with TGF-beta, 500 pg/mL. The source says:
TGF-b is a main component in the TGF-b signaling pathway which plays diverse roles in cellular and development pathways. TGF-b is mediated through transcription factors called "Smads". Although the Smad-dependent pathway is the primary canonical TGF-b signaling mode, TGF-b1 can also activate alternative signaling pathways, including those involving MAPK (ERK, JNK and p38). This interaction may mediate or enhance Smad-dependent responses, or can exert Smad-independent effects. The complexity of this signaling cascade allows the TGF-b superfamily to perform unique, overlapping or redundant functions. […] We aim to identify Smad3-small molecule antagonists using a quantitative high throughput screening (qHTS) approach. […]
Suspensions of trypsinized HEPG2 CAGA-GFP cells were dispensed into white, tissue culture-treated, solid 1536-well plates at 5uL/well (1000 cells/well final concentration) in DMEM medium supplemented with 1% FBS. […] The plates were measured on an Acumen eX3 Explorer plate reader for GFP fluorescence (ex488/em500-530). GFP values were calculated by determining the mean GFP fluorescence of individual cells, and compiling these values for each well to determine a total well GFP signal. The %Activity was determined from the corrected fluorescence values. […] Concentration-response curves were fitted to the signals arising from the resulting fluorescence. […]
(In qHTS, concentration-response curves come from the screen itself.)
For `COc1c(O)cc2c(c1OC)-c1ccc(SC)c(=O)cc1C(NC(C)=O)CC2` (stereo unspecified), the Potency was active: 46.1 nM.
